The results in this text go back to publication PMC10585954.

The exact form of at least one protein or probe is not confirmed. For some assays here: Weaker means in comparison with the reference protein, sequence or condition of that experiment. For some assays here: At least one verdict rests on a figure or table, not on a statement of the authors.

In data set [1] the target is amyloid-beta 1-40 aggregates (sonicated, in vitro) (UniProt P05067). Briefly: single-molecule pull-down (APSiMPull), antibody 6E10 detection. As to conditions: PBS-T (0.05% Tween 20, from potassium-rich Rockland MB-075-1000), 10 nM biotinylated aptamer on NeutrAvidin/PEG coverslip, commercial protein, residues 672-711, folded or branched DNA.
For data set [2], the target named is amyloid-beta aggregates in human serum (Homo sapiens) (UniProt P05067). Described as above. The note with it: human serum, 90 min, mean spots per FoV 140 +/- 120 (PD), 150 +/- 100 (control); PBS-T (0.05% Tween 20, from potassium-rich Rockland MB-075-1000); 10 nM biotinylated aptamer on NeutrAvidin/PEG coverslip; native protein; label: biotin (capture); folded or branched DNA.

Data set [3] has as its target alpha-synuclein aggregates (sonicated, in vitro) (UniProt P37840). In words: single-molecule pull-down (APSiMPull), antibody 211 detection. The note with it: PBS-T (0.05% Tween 20, from potassium-rich Rockland MB-075-1000), 10 nM biotinylated aptamer on NeutrAvidin/PEG coverslip, recombinant protein, folded or branched DNA.
Data set [4] has as its target alpha-synuclein aggregates in human serum (Homo sapiens) (UniProt P37840). The description is as above. The note with it: human serum, 90 min, mean spots per FoV 200 +/- 100 (PD), 120 +/- 60 (control); PBS-T (0.05% Tween 20, from potassium-rich Rockland MB-075-1000); 10 nM biotinylated aptamer on NeutrAvidin/PEG coverslip; native protein; label: biotin (capture); folded or branched DNA.

Data set [5] shares this target. Briefly: single-molecule pull-down (APSiMPull). The note with it: only the correct capture aptamer gives a strong signal, PBS-T (0.05% Tween 20, from potassium-rich Rockland MB-075-1000), 10 nM biotinylated aptamer on NeutrAvidin/PEG coverslip, native protein, label: biotin, folded or branched DNA.
For data set [6], the target named is amyloid-beta aggregates in human serum (Homo sapiens) (UniProt P05067). In words: single-molecule pull-down (APSiMPull). As to conditions: only the correct capture aptamer gives a strong signal, PBS-T (0.05% Tween 20, from potassium-rich Rockland MB-075-1000), 10 nM biotinylated aptamer on NeutrAvidin/PEG coverslip, native protein, label: biotin, folded or branched DNA.

As to “GCCTGTGGTGTTGGGGCGGGTGCGT [T-SO508 aptamer]”, the binding result in data set [1] (sonicated aggregates, 30 min, concentration-dependent until saturation, label: biotin (capture)) is “binds”; in data set [2], “binds”; in data set [3] (sonicated aggregates, 30 min, concentration-dependent until saturation, prefers small aggregates over mature fibrils, label: biotin (capture)), “binds”; in data set [4], “binds”.

“GGGTTAGGGTTAGGGTTAGGGTTT [control aptamer (G-quadruplex)]”: the binding result was “binds more weakly” in data set [1] (125 nM aggregates, much less signal than T-SO508, label: biotin); “binds more weakly” in data set [5]; “binds more weakly” in data set [6]; “binds more weakly” in data set [3] (500 nM aggregates, much less signal than T-SO508, label: biotin).
